In PubChem BioAssay AID2685 (National Center for Advancing Translational Sciences (NCATS), 2010):
The list shows a part of the results. Shown are side measurements of this screen, not its main read-out; they come without a call. Most of these compounds were active or inconclusive in the main read-out, so they are no random draw. Words in brackets tell the shape of the fitted curve; partial curves, single points and poor fits give uncertain potencies.

Test: qHTS Assay for Lipid Storage Modulators in Drosophila S3 Cells;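 on cell number change: cells counted by Cell Tracker Red CMTPX staining in the red channel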
Conditions: BODIPY lipid droplet fluorescence, 18-24 h; for cell number change: measured here: cell count max response, cells fed with added oleic acid
Procedure, shortened: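 Drosophila S3 cells loaded with oleic acid (400 uM, as added) and compounds at several concentrations; lipid droplets imaged by 488-nm laser-scanning cytometry, 500–530 nm intensity and object ratio to cell channel. Percent activity normalized to 20 uM Triacsin C.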

[1] = measured here: cell number channel AC50, cells fed with added oleic acid
[2] = measured here: lipid fluorescence (Fed channel) AC50, cells fed with added oleic acid

Row | SMILES | cell number change | AC50 [1] | AC50 [2]
1 | N=c1n(CC(=O)c2ccc(Br)s2)c2ccccc2n1Cc1ccccc1 | -52.9% | 29.1 µM [falling, single point] | 29.1 µM [falling, single point]
2 | COc1ccc(CCN2CC(C(=O)N(C)CC(=O)Nc3ccc(Cl)c(C(F)(F)F)c3)CC2=O)cc1OC (stereo not given) | -25% | 0.13 µM [falling, full curve, poor fit] | –
3 | CC(C)Nc1nc(Oc2ccc(Cl)cc2Cl)cc(C(F)(F)F)n1 | – | – | 0.146 µM [rising, full curve, poor fit]
4 | CCc1ccc(CNC(=O)c2ccc(NC(=O)C3=CSCCO3)cc2)cc1 | -33.7% | – | 29.1 µM [rising, single point]
5 | CCCn1cc(CN2CCC(n3nccc3NC(=O)c3ccccc3)CC2)c(C)n1 | – | – | 29.1 µM [rising, single point]
6 | Clc1cccc(NCc2cn3cccnc3n2)c1 | – | – | 0.0651 µM [falling, full curve, poor fit]
7 | CCOc1ccc(N(CC(=O)NC2CCCCCC2)S(=O)(=O)c2c(C)[nH]c(=O)[nH]c2=O)cc1 | -40% | 23.1 µM [falling, partial curve] | 23.1 µM [falling, partial curve]
8 | CCOc1ncccc1C(=O)Nc1ccc(Cl)cc1 | – | – | 0.146 µM [rising, full curve, poor fit]
9 | CN1CCN(S(=O)(=O)c2ccccc2)CC1 | 3.17% | – | 4.11 µM [falling, partial curve, poor fit]
10 | CC(C)(C)c1csc(NC(=O)CCc2ccccc2)n1 | -14.7% | – | –
11 | COc1ccc(C#Cc2c(C=O)n(C)c3ccccc23)cc1 | 10.5% | – | 0.00461 µM [falling, full curve, poor fit]
12 | O=C(Nc1ccc(F)c(F)c1)c1cc(S(=O)(=O)N2CCN(c3ccccn3)CC2)ccc1F | 2.66% | – | 5.8 µM [rising, single point]
13 | Oc1ccccc1C1=NCCNC(C(F)(F)C(F)F)=C1 | 3.97% | – | 2.06 µM [falling, partial curve]
14 | CCOc1cccc(C(=O)Nc2ccccc2C(=O)N2CCOCC2)c1 | -17% | – | 29.1 µM [falling, single point]
15 | Cc1ccc2nc(NC(=O)CCCc3nc4ccccc4s3)sc2c1 | – | 2.31 µM [rising, single point] | 3.66 µM [rising, partial curve]
16 | CCOC(=O)C(NCc1ccco1)(NC(=O)c1ccccc1)C(F)(F)F (stereo not given) | -36.1% | 2.06 µM [falling, full curve] | 2.59 µM [falling, full curve]
17 | CCn1c(COc2ccc(C(C)C)cc2)nnc1SCC(=O)Nc1nccs1 | – | 2.91 µM [rising, single point] | 6.51 µM [rising, single point]
18 | CC/C(C)=N/Nc1nc2c(c(=O)[nH]c(=O)n2C)n1CCc1ccccc1 | 14.6% | – | –
19 | Oc1cc(O)c2c(c1)OC(c1ccc(O)c(O)c1)C(O)C2 (stereo not given) | 3.56% | – | 1.84 µM [falling, partial curve, poor fit]
20 | CC(C)Cc1nnc(NC(=O)CSc2nc(=O)cc(N)n2-c2ccccc2)s1 | 8.31% | – | –

Row | SMILES | cell number change | AC50 [1] | AC50 [2]
21 | CC(C)COc1cc(=O)[nH]c(SCC(C)C)n1 | -34.2% | 23.1 µM [falling, single point] | 29.1 µM [falling, single point]
22 | Cc1ccc(NCCNc2ccc(C)cc2)cc1 | 2.62% | – | 6.51 µM [rising, single point]
23 | CC1OC2(C)OC(=N)C1(C#N)C(C#N)(C#N)C2c1ccccc1 (stereo not given) | 35.3% | 29.1 µM [rising, single point] | 8.2 µM [rising, partial curve]
24 | COc1ccc(N2CCn3c2nc2c3c(=O)n(CCc3ccccc3)c(=O)n2C)cc1 | – | 0.58 µM [rising, full curve] | 1.46 µM [rising, full curve]
25 | CCOc1cc(CNc2ccc(N3CCOCC3)cc2)cc(Br)c1OCC | 18.9% | – | 0.184 µM [falling, full curve, poor fit]
26 | CCCn1c(SCC(=O)NCCc2ccc(OC)c(OC)c2)nc2c1c(=O)n(C)c(=O)n2C | -0.419% | – | –
27 | CCOC(=O)c1ccc(NC(=O)Nc2ccc(F)cc2)cc1 | -52.2% | 18.4 µM [falling, single point] | 23.1 µM [falling, single point]
28 | CCNC(=S)N/N=C/c1cccs1 | 65.1% | 18.4 µM [rising, single point] | –
29 | CC(=O)c1ccc(NC(=O)CCNS(=O)(=O)c2cccc3nonc23)cc1 | – | – | 2.06 µM [falling, partial curve]
30 | COc1cc([C@@H]2CC=C(C(=O)O)[C@H](c3ccc(F)cc3)N2S(=O)(=O)c2ccc(C)cc2)cc(OC)c1OC | – | – | 2.31 µM [rising, full curve]
31 | COc1ccc(/C=C2\SC(=S)N(CCC(=O)NCCCn3ccnc3)C2=O)cc1 | -24.1% | – | –
32 | Cc1cc(OC(=O)c2ccccc2Cl)ccc1N1C(=O)CCC1=O | 12% | – | –
33 | CCOc1ccccc1OCC(=O)O | -21.4% | – | 1.64 µM [rising, partial curve, poor fit]
34 | O=C(COc1ccc(Cl)cc1Cl)NN=C1c2ccccc2-c2ccccc21 | -5.55% | – | 0.651 µM [falling, single point]
35 | Cc1cc(Cl)c2oc(C(=O)N(C)CCCCN3CCOCC3)c(C)c2c1 | – | – | 29.1 µM [falling, single point]
36 | O=C(c1ccsc1)N1CCCC(N2CCN(c3cccc(C(F)(F)F)c3)CC2)C1 (stereo not given) | -9.63% | – | 0.58 µM [falling, single point]
37 | CCOc1cc(NC(=S)NCC2CCCO2)c(OCC)cc1NC(=O)c1ccc(OC)cc1 (stereo not given) | 8.45% | – | 0.103 µM [rising, full curve, poor fit]
38 | COc1ccc(OC)c(NC(=O)CN2C(=O)NC3(CCCc4ccccc43)C2=O)c1 (stereo not given) | -22.1% | – | –
39 | Cc1ccc(C(=O)N/N=c2\oc3ccccc3cc2C(N)=O)cc1 | 24.1% | – | 3.26 µM [falling, full curve, poor fit]
